In paper PMC4207488:
Results are given in words; binding and its absence hold for the method and conditions named. For part of these data: Binding seen in cells or lysates may run through a third protein. Some results given as binding are weak or reduced against the parent protein; the word gives no strength. For part of these data: Tags and fused reporters may be left off the sequences shown.

Tests used:
[1] = target: T1, LexA-Rpb4 (S. cerevisiae) (UniProt P20433); test: two-hybrid; LexA fusion as bait (pLex202), B42 fusions as preys (pJG4-5), reporter strain MY290; serial dilutions spotted on medium selective for the plasmids and indicative of an interaction (-L)
T1 sequence: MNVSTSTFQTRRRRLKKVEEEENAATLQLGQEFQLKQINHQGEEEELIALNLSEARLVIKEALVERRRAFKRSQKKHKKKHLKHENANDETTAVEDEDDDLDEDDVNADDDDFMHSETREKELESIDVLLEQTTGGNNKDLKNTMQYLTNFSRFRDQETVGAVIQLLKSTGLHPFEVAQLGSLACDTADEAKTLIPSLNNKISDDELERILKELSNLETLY

[2] = target: T2, Rpb4-TT (S. cerevisiae), P20433; test: co-IP; Tap-tagged protein captured from 4 mg of total yeast extract on IgG sepharose in IP buffer (40 mM HEPES-KOH pH 8.0, 100 mM KCl, 150 mM potassium acetate, 1 mM EDTA, 10% glycerol), eluted with TEV protease, SDS-PAGE and western blot; extracts of wild-type or not5Δ cells, with RNaseA where indicated; settings: remark: other sources report otherwise
T2 chain: T1 sequence

Not4-TT (S. cerevisiae) = target: T3, Not4-TT (S. cerevisiae) (UniProt P34909); test: as above
T3 sequence: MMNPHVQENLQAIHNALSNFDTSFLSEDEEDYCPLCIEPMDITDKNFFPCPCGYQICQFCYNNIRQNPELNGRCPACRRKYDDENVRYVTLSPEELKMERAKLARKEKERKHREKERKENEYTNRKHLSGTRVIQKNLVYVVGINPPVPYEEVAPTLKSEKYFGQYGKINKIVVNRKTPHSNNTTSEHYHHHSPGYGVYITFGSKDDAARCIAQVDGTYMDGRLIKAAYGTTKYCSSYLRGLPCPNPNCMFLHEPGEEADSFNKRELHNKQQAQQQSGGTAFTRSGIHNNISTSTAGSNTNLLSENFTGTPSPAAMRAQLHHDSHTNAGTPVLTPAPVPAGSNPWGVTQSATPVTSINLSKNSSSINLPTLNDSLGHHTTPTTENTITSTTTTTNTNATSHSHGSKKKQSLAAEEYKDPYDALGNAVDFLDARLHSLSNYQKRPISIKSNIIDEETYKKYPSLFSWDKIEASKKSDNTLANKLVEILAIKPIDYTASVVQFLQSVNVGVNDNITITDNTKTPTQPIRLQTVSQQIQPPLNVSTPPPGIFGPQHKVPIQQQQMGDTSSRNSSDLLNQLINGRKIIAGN

B1: B42-Not5 (protein, UniProt Q12514 1-560)
chain: MSQRKLQQDIDKLLKKVKEGIEDFDDIYEKFQSTDPSNSSHREKLESDLKREIKKLQKHRDQIKTWLSKEDVKDKQSVLMTNRRLIENGMERFKSVEKLMKTKQFSKEALTNPDIIKDPKELKKRDQVLFIHDCLDELQKQLEQYEAQENEEQTERHEFHIANLENILKKLQNNEMDPEPVEEFQDDIKYYVENNDDPDFIEYDTIYEDMGCEIQPSSSNNEAPKEGNNQTSLSSIRSSKKQERSPKKKAPQRDVSISDRATTPIAPGVESASQSISSTPTPVSTDTPLHTVKDDSIKFDNSTLGTPTTHVSMKKKESENDSEQQLNFPPDRTDEIRKTIQHDVETNAAFQNPLFNDELKYWLDSKRYLMQPLQEMSPKMVSQLESSLLNCPDSLDADSPCLYTKPLSLPHPTSIFFPNEPIRFVYPYDVPLNLTNNENDTDNKFGKDSKAKSKKDDDIYSRTSLARIFMKFDLDTLFFIFYHYQGSYEQFLAARELFKNRNWLFNKVDRCWYYKEIEKLPPGMGKSEEESWRYFDYKKSWLARRCGNDFVYNEEDFEKL
In the case of B1, the binding [1] is reported as “binds”.

B2: Ccr4, P31384 1-837 (protein)
chain: MNDPSLLGYPNVGPQQQQQQQQQQHAGLLGKGTPNALQQQLHMNQLTGIPPPGLMNNSDVHTSSNNNSRQLLDQLANGNANMLNMNMDNNNNNNNNNNNNNNNGGGSGVMMNASTAAVNSIGMVPTVGTPVNINVNASNPLLHPHLDDPSLLNNPIWKLQLHLAAVSAQSLGQPNIYARQNAMKKYLATQQAQQAQQQAQQQAQQQVPGPFGPGPQAAPPALQPTDFQQSHIAEASKSLVDCTKQALMEMADTLTDSKTAKKQQPTGDSTPSGTATNSAVSTPLTPKIELFANGKDEANQALLQHKKLSQYSIDEDDDIENRMVMPKDSKYDDQLWHALDLSNLQIFNISANIFKYDFLTRLYLNGNSLTELPAEIKNLSNLRVLDLSHNRLTSLPAELGSCFQLKYFYFFDNMVTTLPWEFGNLCNLQFLGVEGNPLEKQFLKILTEKSVTGLIFYLRDNRPEIPLPHERRFIEINTDGEPQREYDSLQQSTEHLATDLAKRTFTVLSYNTLCQHYATPKMYRYTPSWALSWDYRRNKLKEQILSYDSDLLCLQEVESKTFEEYWVPLLDKHGYTGIFHAKARAKTMHSKDSKKVDGCCIFFKRDQFKLITKDAMDFSGAWMKHKKFQRTEDYLNRAMNKDNVALFLKLQHIPSGDTIWAVTTHLHWDPKFNDVKTFQVGVLLDHLETLLKEETSHNFRQDIKKFPVLICGDFNSYINSAVYELINTGRVQIHQEGNGRDFGYMSEKNFSHNLALKSSYNCIGELPFTNFTPSFTDVIDYIWFSTHALRVRGLLGEVDPEYVSKFIGFPNDKFPSDHIPLLARFEFMKTNTGSKKV
With B2 the binding [2] was “binds”.

B3: HA-tagged Rpb4 (protein, UniProt P20433 1-221)
chain: T1 sequence
With B3 the binding (Not4-TT (S. cerevisiae)) was “binds”.
